Test [1] concerns the target FLAG-tagged SUPERNUMERARY LIMBS (SLMB) (Drosophila). Kind of test: co-IP; anti-FLAG affinity gel (EZview Red) on 1 mg of total head proteins of slmb^m flies expressing FLAG-SLMB under tim-gal4, HE buffer (20 mM hepes pH 7.5, 0.1 M KCl, 10 mM EDTA) with 0.1% NP40; anti-TIM immunoblot; per^+ and per^0 backgrounds; different time points, two consecutive time points pooled in per^+.

Test [2] concerns the target FLAG-tagged CULLIN-3 (CUL-3) (Drosophila). Kind of test: co-IP; anti-FLAG affinity gel (EZview Red) on 1 mg of total head proteins of tim>flag-Cul-3 flies, HE buffer (20 mM hepes pH 7.5, 0.1 M KCl, 10 mM EDTA) with 0.1% NP40; anti-TIM immunoblot; per^+ and per^0 backgrounds, with or without heterozygous Cul-3^gft2; flies collected at CT15 in DD.

Here are results for 2 molecules from paper PMC3413713.

Results are given in words; binding and its absence hold for the method and conditions named. In cells and extracts the contact can be indirect. Binding calls can cover weak binding; strength is not graded here.

B1: hypo-phosphorylated TIMELESS (TIM) (protein, UniProt P49021 1-1398)
chain: MDWLLATPQLYSAFSSLGCLEGDTYVVNPNALAILEEINYKLTYEDQTLRTFRRAIGFGQNVRSDLIPLLENAKDDAVLESVIRILVNLTVPVECLFSVDVMYRTDVGRHTIFELNKLLYTSKEAFTEARSTKSVVEYMKHILESDPKLSPHKCDQINNCLLLLRNILHIPETHAHCVMPMMQSMPHGISMQNTILWNLFIQSIDKLLLYLMTCPQRAFWGVTMVQLIALIYKDQHVSTLQKLLSLWFEASLSESSEDNESNTSPPKQGSGDSSPMLTSDPTSDSSDNGSNGRGMGGGMREGTAATLQEVSRKGQEYQNAMARVPADKPDGSEEASDMTGNDSEQPGSPEQSQPAGESMDDGDYEDQRHRQLNEHGEEDEDEDEVEEEEYLQLGPASEPLNLTQQPADKVNNTTNPTSSAPQGCLGNEPFKPPPPLPVRASTSAHAQMQKFNESSYASHVSAVKLGQKSPHAGQLQLTKGKCCPQKRECPSSQSELSDCGYGTQVENQESISTSSNDDDGPQGKPQHQKPPCNTKPRNKPRTIMSPMDKKELRRKKLVKRSKSSLINMKGLVQHTPTDDDISNLLKEFTVDFLLKGYSYLVEELHMQLLSNAKVPIDTSHFFWLVTYFLKFAAQLELDMEHIDTILTYDVLSYLTYEGVSLCEQLELNARQEGSDLKPYLRRMHLVVTAIREFLQAIDTYNKVTHLNEDDKAHLRQLQLQISEMSDLRCLFVLLLRRFNPSIHSKQYLQDLVVTNHILLLILDSSAKLGGCQTIRLSEHITQFATLEVMHYYGILLEDFNNNGEFVNDCIFTMMHHIGGDLGQIGVLFQPIILKTYSRIWEADYELCDDWSDLIEYVIHKFMNTPPKSPLTIPTTSLTEMTKEHNQEHTVCSWSQEEMDTLYWYYVQSKKNNDIVGKIVKLFSNNGNKLKTRISIIQQLLQQDIITLLEYDDLMKFEDAEYQRTLLTTPTSATTESGIEIKECAYGKPSDDVQILLDLIIKENKAQHLLWLQRILIECCFVKLTLRSGLKVPEGDHIMEPVAYHCICKQKSIPVVQWNNEQSTTMLYQPFVLLLHKLGIQLPADAGSIFARIPDYWTPETMYGLAKKLGPLDKLNLKFDASELEDATASSPSRYHHTGPRNSLSSVSSLDVDLGDTEELALIPEVDAAVEKAHAMASTPSPSEIFAVPKTKHCNSIIRYTPDPTPPVPNWLQLVMRSKCNHRTGPSGDPSDCIGSSSTTVDDEGFGKSISAATSQAASTSMSTVNPTTTLSLNMLNTFMGSHNENSSSSGCGGTVSSLSMVALMSTGAAGGGGNTSGLEMDVDASMKSSFERLEVNGSHFSRANNLDQEYSAMVASVYEKEKELNSDNVSLASDLTRMYVSDEDDRLERTEIRVPHYH
modifications: hypo-phosphorylated (fast migrating form on the anti-TIM blot); sites not stated
As for B1, the binding result in test [1] and in test [2] was “binds” in each case.

B2: phosphorylated TIMELESS (TIM) (protein, UniProt P49021 1-1398)
chain: B1 chain
modifications: phosphorylated (slow migrating form on the anti-TIM blot); sites not stated
As to B2, the binding result in test [1] was “binds”.
